{"source": "patent US10906881B2", "about": "“Inhibitors of arginine gingipain” (priority 2015, dated 2021)", "format_in_all_cases": "biochemical", "key": {"RgpB": {"biological_target": "T1, RgpB (Porphyromonas gingivalis, UniProt P95493)", "T1 construct": "0.02 nM RgpB, isolated from culture of Porphyromonas gingivalis; made in house; host or cells: Porphyromonas gingivalis culture (native enzyme purified from the bacterium, not recombinant)", "assay": "RgpB fluorogenic inhibition assay", "description": "The capacities of compounds of the present invention to inhibit the activity of RgpB were measured in a fluorogenic assay similar to those described in Barret Biochemical Journal. 1980, 187(3), 909. The specific assay conditions were as follows. Buffer: pH=7.5, 100 mM Tris-HCl, 75 mM NaCl, 2.5 mM CaCl2, 10 mM cysteine, 1% DMSO after all additions. Protein: 0.02 nM RgpB, isolated from culture of Porphyromonas gingivalis, as described in Pike et al. J Biol. Chem. 1994, 269(1), 406, and Potempa and Nguyen. Current Protocols in Protein Scienc. 2007, 21.20.1-21.20.27. Fluorogenic substrate: 10 uM Boc-Phe-Ser-Arg-MCA. Time=90 minutes. Temperature=37° C. Each compound: 10 concentrations, starting at either 100 uM or 100 nM, with lower concentrations generated by serial 3-fold dilutions. By testing a range of concentrations for each compound, the concentration required to inhibit the activity of RgpB by 50% (the “IC50”) was determined. Under the described assay conditions, signal-to-noise was excellent, and Z factor was greater than 0.7.\n(§1) The inhibitory of activity of compounds described herein was tested against Kgp, RgpB, RgpA, and trypsin."}, "Kgp": {"biological_target": "Kgp (Porphyromonas gingivalis, UniProt B2RLK2)", "assay": "Kgp inhibition assay", "description": "as §1"}, "RgpA": {"biological_target": "RgpA (Porphyromonas gingivalis, UniProt B2RM93)", "assay": "RgpA inhibition assay", "details": "read-out: RgpA IC50", "description": "as §1"}, "[1]": {"details": "read-out: RgpB IC50; 0.02 nM RgpB, 10 uM Boc-Phe-Ser-Arg-MCA, 90 minutes, 37° C., pH 7.5"}, "[2]": {"details": "0.02 nM RgpB, 10 uM Boc-Phe-Ser-Arg-MCA, 90 minutes, 37° C., pH 7.5; read-out: RgpB IC50"}}, "note": "Like-named read-outs stand apart in the source and are kept apart here. Some of these results come from one statement about several compounds together.", "data": [{"smiles": "N=C(N)NCCCC(NC(=O)[C@H]1CC[C@@H](N)C1)C(=O)c1nc2ccccc2s1", "note": "(single isomer, unassigned) [Compound 10]", "values": [{"measurement": "IC50", "setting": "RgpB; [1]", "result": "< 0.01", "unit": "µM"}, {"measurement": "IC50", "setting": "Kgp", "result": "> 10", "unit": "µM"}]}, {"smiles": "CC[C@H](NC(C)=O)C(=O)NC(CCCNC(=N)N)C(=O)c1nc2ccccc2s1", "note": "(single isomer, unassigned) [Compound 11]", "values": [{"measurement": "IC50", "setting": "RgpB; [1]", "result": "< 0.01", "unit": "µM"}, {"measurement": "IC50", "setting": "Kgp", "result": "> 10", "unit": "µM"}, {"measurement": "IC50", "setting": "RgpA", "result": "< 0.005", "unit": "µM"}]}, {"smiles": "N=C(N)NCCC[C@H](NC(=O)C1CCCC1)C(=O)c1nc2ccccc2s1", "note": "[Compound 1, N-[(1S)-1-(1,3-benzothiazole-2-carbonyl)-4-guanidino-butyl]cyclopentanecarboxamide]", "values": [{"measurement": "IC50", "setting": "Kgp", "result": "> 10", "unit": "µM"}, {"measurement": "IC50", "setting": "RgpA", "result": "< 0.005", "unit": "µM"}]}, {"smiles": "CCCC(=O)N[C@@H](CCCNC(=N)N)C(=O)c1nc2ccccc2s1", "note": "[Compound 2, N-[(1S)-1-(1,3-benzothiazole-2-carbonyl)-4-guanidino-butyl]butanamide]", "values": [{"measurement": "IC50", "setting": "Kgp", "result": "> 10", "unit": "µM"}]}, {"smiles": "N=C(N)NCCC[C@H](NC(=O)c1ccccc1)C(=O)c1nc2ccccc2s1", "note": "[Compound 3, N-[(1S)-1-(1,3-benzothiazole-2-carbonyl)-4-guanidino-butyl]benzamide]", "values": [{"measurement": "IC50", "setting": "Kgp", "result": "> 10", "unit": "µM"}, {"measurement": "IC50", "setting": "RgpA", "result": "< 0.005", "unit": "µM"}]}, {"smiles": "N=C(N)NCCC[C@H](NC(=O)c1ccccc1C(F)(F)F)C(=O)c1nc2ccccc2s1", "note": "[Compound 4, N-[(1S)-1-(1,3-benzothiazole-2-carbonyl)-4-guanidino-butyl]-2-(trifluoromethyl)benzamide]", "values": [{"measurement": "IC50", "setting": "RgpB; [2]", "result": "< 0.01", "unit": "µM"}, {"measurement": "IC50", "setting": "Kgp", "result": "> 10", "unit": "µM"}]}, {"smiles": "N=C(N)NCCC[C@H](NC(=O)CCCN)C(=O)c1nc2ccccc2s1", "note": "[Compound 5, 4-amino-N-[(1S)-1-(1,3-benzothiazole-2-carbonyl)-4-guanidino-butyl]butanamide]", "values": [{"measurement": "IC50", "setting": "RgpB; [2]", "result": "< 0.01", "unit": "µM"}, {"measurement": "IC50", "setting": "Kgp", "result": "> 10", "unit": "µM"}]}, {"smiles": "N=C(N)NCCC[C@H](NC(=O)[C@H]1CCCNC1)C(=O)c1nc2ccccc2s1", "note": "[Compound 6, (3S)—N-[(1S)-1-(1,3-benzothiazole-2-carbonyl)-4-guanidino-butyl]piperidine-3-carboxamide]", "values": [{"measurement": "IC50", "setting": "RgpB; [2]", "result": "< 0.01", "unit": "µM"}, {"measurement": "IC50", "setting": "Kgp", "result": "> 10", "unit": "µM"}]}, {"smiles": "N=C(N)NCCC[C@@H](NC(=O)[C@H]1CCCNC1)C(=O)c1nc2ccccc2s1", "note": "[Compound 7, (3S)—N-[(1R)-1-(1,3-benzothiazole-2-carbonyl)-4-guanidino-butyl]piperidine-3-carboxamide]", "values": [{"measurement": "IC50", "setting": "RgpB; [2]", "result": "< 0.01", "unit": "µM"}, {"measurement": "IC50", "setting": "Kgp", "result": "> 10", "unit": "µM"}]}, {"smiles": "N=C(N)NCCC[C@H](NC(=O)[C@H]1CCNC1)C(=O)c1nc2ccccc2s1", "note": "[Compound 8, (3S)—N-[1-(1,3-benzothiazole-2-carbonyl)-4-guanidino-butyl]pyrrolidine-3-carboxamide]", "values": [{"measurement": "IC50", "setting": "RgpB; [2]", "result": "< 0.01", "unit": "µM"}, {"measurement": "IC50", "setting": "Kgp", "result": "> 10", "unit": "µM"}]}, {"smiles": "[N-]=[N+]=Nc1cccc(C(=O)N[C@@H](CCCNC(=N)N)C(=O)COc2c(F)c(F)cc(F)c2F)c1", "note": "[Compound 14, 3-azido-N-[(1S)-4-guanidino-1-[2-(2,3,5,6-tetrafluorophenoxy)acetyl]butyl]benzamide]", "values": [{"measurement": "IC50", "setting": "RgpB; [1]", "result": "< 0.01", "unit": "µM"}]}]}
